# Measured values from PubChem BioAssay AID493014 (National Center for Advancing Translational Sciences (NCATS), 2011).
# The list shows a part of the results. Further columns of the screen follow, without active or inactive calls. Most of these compounds were active or inconclusive in the main read-out, so they are no random draw. Words in brackets tell the shape of the fitted curve; partial curves, single points and poor fits give uncertain potencies.
# Assay: qHTS Assay to Find Inhibitors of Chronic Active B-Cell Receptor Signaling
# Settings: ABC-DLBCL IkBa-CBG/CBR reporter, luminescence ratio (green luciferase fused to IkBa over red control in TMD8 lymphoma cells), 4 h
# Summary of the method: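 Concentration-response series (up to 46 uM) were applied to TMD8 dual-reporter cells for 4 h at 37C with doxycycline. Green/red ratio, after filter-overlap correction, defined %Activity; red signal alone was normalised to basal cells and zero luminescence.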
# [1] = measured here: CBR red luminescence, cell number
# [2] = measured here: IkBa-CBG green luminescence
Compound,AC50 [1],AC50 [2]
CCc1ccnc(NC(=O)Nc2ccc(OCc3ccccc3)cc2)c1,"12.6 µM [rising, partial curve]",–
Nc1nc(-c2ccccc2)c(-c2ccccc2)o1,"6.31 µM [rising, single point]",–
Cc1noc(NS(=O)(=O)c2ccc(N/C=C\C(=O)c3cccs3)cc2)c1C,"35.5 µM [falling, single point]",–
COc1ccc(-c2csc(N3CCOCC3)n2)cc1OC,"20.6 µM [rising, partial curve]",–
CCc1ccc(/C=c2\s/c(=C\C(=O)C(C)(C)C)[nH]c2=O)cc1,"0.461 µM [rising, full curve, poor fit]",–
O=C1NCC2=C1C(c1ccccc1)Nc1ccccc1N2 (centres undefined),"14.1 µM [falling, single point]",–
CCOC(=O)C1=C(c2ccccc2)O/C(=C(/C#N)C(F)(F)F)S1,"18.4 µM [rising, partial curve, poor fit]",–
COc1cc(NC(=O)c2nccnc2N)cc(C(=O)Nc2cccc(C(F)(F)F)c2)c1,"12.6 µM [rising, single point]",–
COc1ccc(CCNC(=O)c2cc3c(=O)n4cccc(C)c4nc3n(Cc3ccco3)c2=N)cc1OC,"11.2 µM [falling, partial curve]","28.2 µM [falling, single point]"
CCC1=NN(C(=O)c2ccc(Br)cc2)C(O)(c2ccccc2)C1 (centres undefined),"18.4 µM [falling, single point]",–
CN(C)c1ccc(C(CNS(=O)(=O)c2ccc3ccccc3c2)c2c[nH]c3ccccc23)cc1 (centres undefined),"29.1 µM [falling, single point]",–
N#CCSc1ncnc2ccccc12,"12.6 µM [falling, partial curve]",–
CN1CCN(C2=Cc3ccc(Cl)cc3Sc3ccc(F)cc32)CC1,"16.4 µM [falling, partial curve]","25.9 µM [rising, partial curve, poor fit]"
Cc1ccc(C)c2sc(NC(=O)CN3C(=O)CCC3=O)nc12,"7.08 µM [falling, full curve, poor fit]","4.47 µM [rising, full curve, poor fit]"
COC(=O)[C@]1(Cc2ccccc2)N[C@H](c2ccc(SC3CCCCC3)c(OC)c2)[C@@H]2C(=O)N(C)C(=O)[C@@H]21,"10.3 µM [falling, partial curve, poor fit]",–
NS(=O)(=O)c1ccc(CCNCc2ccccc2OCc2ccc(F)cc2)cc1,"35.5 µM [falling, single point]",–

# 3 structures out of the list, arranged by heavy-atom count, ascending:
Compound,AC50 [1],AC50 [2]
N#CCSc1ncnc2ccccc12,"12.6 µM [falling, partial curve]",–
O=C1NCC2=C1C(c1ccccc1)Nc1ccccc1N2 (centres undefined),"14.1 µM [falling, single point]",–
Cc1ccc(C)c2sc(NC(=O)CN3C(=O)CCC3=O)nc12,"7.08 µM [falling, full curve, poor fit]","4.47 µM [rising, full curve, poor fit]"
